PubChem BioAssay AID1259300 – Sanger Institute – 2017

Screen: 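Kinase and colorectal-mutated gene knock-downs lowering HCT15 viability or boosting drug effects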 (primary screen)
Cell system: HCT15 colorectal cancer cells
Reagent: siRNA pool against human genes
Treatment: anchor drug or DMSO vehicle added 24 h after seeding: BYL719 1 µM, cetuximab 5 µg/ml, trametinib 10 nM; drug doses chosen to barely affect viability alone
Detection: 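Cell viability after knock-down, as fraction of non-targeting pool wells averaged over replicates, plus robust z-score for knock-down alone; synergy score per drug (BYL719 1 µM, cetuximab 5 µg/ml, trametinib 10 nM)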
Reading the numbers: viability z-score, siRNA alone: higher = more viable cells after knock-down; viability vs non-targeting, siRNA alone: higher = more viable cells; synergy score with BYL719 and synergy score with cetuximab and synergy score with trametinib: higher = stronger synergy of knock-down with drug
Active means: 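Called active (essential) if viability z-score with knock-down alone falls below -3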
Meaning of the calls: active = essential: knock-down alone lowers viability (z below -3); inactive = no strong viability loss with knock-down alone
The whole screen tested 794 reagents; this is a random part of them. 18 of them (2.3%) count as active. 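Calls rest on knock-down alone, not drug synergy; depositor treated synergy scores above 0.15 as synergistic; drug doses alone had little viability effect.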 No viability above 1 is reported: the scale is capped. Not stated in the record: the amount of reagent, the time to read-out.

Target gene	viability z-score, siRNA alone	viability vs non-targeting, siRNA alone	synergy score with BYL719	synergy score with cetuximab	synergy score with trametinib	outcome
TJP2 (GeneID 9414)	0.625	1	0.241	0.0313	-0.0968	inactive
NUCKS1 (GeneID 64710)	0.625	1	0.0246	0.00237	-0.0739	inactive
CDK16 (GeneID 5127)	-0.195	0.94	0.159	-0.0349	0.034	inactive
PHKB (GeneID 5257)	0.071	0.96	0.0161	-0.0403	-0.135	inactive
HIPK2 (GeneID 28996)	0.307	0.977	0.0772	0.0926	-0.00279	inactive
UCKL1 (GeneID 54963)	0.625	1	0.102	0.0994	0.00992	inactive
PIK3C3 (GeneID 5289)	0.625	1	0.101	0.096	-0.0109	inactive
MAPK15 (GeneID 225689)	0.625	1	-0.0684	0.104	-0.0984	inactive
GAK (GeneID 2580)	0.625	1	0.137	0.127	-0.083	inactive
PIK3CA (GeneID 5290)	-0.987	0.883	-0.0176	0.0197	-0.0105	inactive
MKNK1 (GeneID 8569)	-0.399	0.926	0.168	-0.0416	-0.0374	inactive
THNSL1 (GeneID 79896)	0.625	1	0.0277	0.15	-0.0291	inactive
NAGK (GeneID 55577)	-0.0341	0.952	0.161	0.108	-0.0846	inactive
BRD2 (GeneID 6046)	0.625	1	0.0978	0	0.0325	inactive
ATR (GeneID 545)	-0.058	0.95	0.124	-0.00874	-0.136	inactive
MAPKAPK5 (GeneID 8550)	0.625	1	-0.056	0.0235	-0.0984	inactive
KMT2B (GeneID 9757)	-1.68	0.832	-0.00673	0.0349	-0.135	inactive
PRKAR1B (GeneID 5575)	-0.425	0.924	0.248	0.0576	-0.12	inactive
SCYL3 (GeneID 57147)	-0.389	0.926	0.213	-0.0544	-0.107	inactive
MAP3K4 (GeneID 4216)	0.167	0.967	0.13	0.0395	-0.0177	inactive
PRKCG (GeneID 5582)	0.625	1	0.298	0.159	-0.0344	inactive
AK7 (GeneID 122481)	-2.51	0.772	0.0624	0.0715	-0.148	inactive
ETNK2 (GeneID 55224)	-2.04	0.806	0.156	-0.0788	-0.0733	inactive
NUP98 (GeneID 4928)	-5.89	0.526	-0.000552	-0.09	-0.226	active
DYRK3 (GeneID 8444)	0.625	1	0.0261	0.0634	-0.0399	inactive
MAP3K12 (GeneID 7786)	0.343	0.979	0.228	0.0195	0.0137	inactive
CDC73 (GeneID 79577)	-0.546	0.915	0.252	0.152	0.146	inactive
EPHA5 (GeneID 2044)	0.625	1	0.109	0.11	-0.0375	inactive

No new results follow: an excerpt of the list.
Target gene	viability z-score, siRNA alone	viability vs non-targeting, siRNA alone	synergy score with BYL719	synergy score with cetuximab	synergy score with trametinib	outcome
MAP3K12 (GeneID 7786)	0.343	0.979	0.228	0.0195	0.0137	inactive
CDC73 (GeneID 79577)	-0.546	0.915	0.252	0.152	0.146	inactive
EPHA5 (GeneID 2044)	0.625	1	0.109	0.11	-0.0375	inactive

The list goes on:
Target gene	viability z-score, siRNA alone	viability vs non-targeting, siRNA alone	synergy score with BYL719	synergy score with cetuximab	synergy score with trametinib	outcome
HK1 (GeneID 3098)	0.625	1	0.158	0.0177	0.0115	inactive
DLG4 (GeneID 1742)	0.625	1	0.21	0	-0.0524	inactive
PNCK (GeneID 139728)	0.625	1	0.0823	0	-0.0608	inactive
DIS3 (GeneID 22894)	-0.0434	0.951	0.207	0.0802	0.0972	inactive
PAPSS1 (GeneID 9061)	0.625	1	-0.00999	0	-0.0984	inactive
RIPK1 (GeneID 8737)	0.614	0.999	0.11	0.0514	-0.0554	inactive
RAF1 (GeneID 5894)	-0.141	0.944	0.0737	0.0714	-0.0689	inactive
MOS (GeneID 4342)	0.625	1	0.195	0.0551	-0.0203	inactive
LYN (GeneID 4067)	0.625	1	0.221	0.0721	-0.0457	inactive
SRPK3 (GeneID 26576)	-0.636	0.908	0.0576	-0.0577	-0.152	inactive
STK32C (GeneID 282974)	0.625	1	0.159	0	-0.0984	inactive
ACSL6 (GeneID 23305)	0.625	1	0.0504	0	-0.0894	inactive
NEK5 (GeneID 341676)	0.625	1	0.141	0	-0.0984	inactive
UCK1 (GeneID 83549)	0.625	1	0.0691	0.0411	-0.021	inactive
ULK1 (GeneID 8408)	-0.036	0.952	0.0635	-0.0481	-0.142	inactive
ELP1 (GeneID 8518)	-0.52	0.917	-0.0732	-0.0833	-0.102	inactive
PRPS2 (GeneID 5634)	0.625	1	0.0925	0.122	0.18	inactive
AMER1 (GeneID 139285)	0.625	1	0.0578	0	-0.0984	inactive
PAK1 (GeneID 5058)	0.237	0.972	0.282	0.152	-0.0574	inactive
PRKCQ (GeneID 5588)	0.619	1	0.125	0.0898	0.102	inactive
PRKACA (GeneID 5566)	0.625	1	0.269	0.0819	-0.0984	inactive
BRD4 (GeneID 23476)	-2.05	0.805	0.169	0.119	0.0167	inactive
PTPRU (GeneID 10076)	-0.117	0.946	0.127	0.0642	-0.135	inactive
POMK (GeneID 84197)	0.604	0.998	-0.0271	0.0676	-0.0998	inactive
CTNNB1 (GeneID 1499)	-1.28	0.861	0.125	0.0578	-0.088	inactive
AURKA (GeneID 6790)	-1.85	0.82	0.323	0.0516	0.151	inactive
CLK3 (GeneID 1198)	0.625	1	0.199	0.0684	-0.0984	inactive
PDGFRB (GeneID 5159)	0.537	0.994	0.308	0.101	-0.00398	inactive
PCK1 (GeneID 5105)	-1.17	0.87	0.136	-0.0715	-0.00336	inactive
SGK1 (GeneID 6446)	0.625	1	0.117	0.105	0.012	inactive
ALPK1 (GeneID 80216)	-1.76	0.827	-0.112	0.0352	-0.121	inactive
PHKG1 (GeneID 5260)	0.625	1	0.241	0.0161	0.091	inactive
PSKH1 (GeneID 5681)	0.625	1	0.0574	0.0822	-0.0955	inactive
AKT2 (GeneID 208)	-0.216	0.939	0.238	0.00709	0.00498	inactive
MVK (GeneID 4598)	0.625	1	0.172	0.131	-0.0437	inactive
